The values that follow come from PMC3663554.

No constants are given. Whether binding was seen depends on the method and setting. In cells and extracts the contact can be indirect. Some results given as binding are weak or reduced against the parent protein; the word gives no strength.

For this assay, the target named is TAP-PS2 (human presenilin 2 with N-terminal Protein G-TEV-SBP tandem affinity purification tag) (human) (UniProt P49810). In words: pull-down; SBP eluate fractions of the multistep TAP purifications of PS1- and PS2-containing γ-secretase complexes from HEK293F, Western blot; loading normalised on Pen-2 and nicastrin.

B1: signal peptide peptidase (SPP) (enzyme, UniProt Q8TCT9 1-377)
chain: MDSALSDPHNGSAEAGGPTNSTTRPPSTPEGIALAYGSLLLMALLPIFFGALRSVRCARGKNASDMPETITSRDAARFPIIASCTLLGLYLFFKIFSQEYINLLLSMYFFVLGILALSHTISPFMNKFFPASFPNRQYQLLFTQGSGENKEEIINYEFDTKDLVCLGLSSIVGVWYLLRKHWIANNLFGLAFSLNGVELLHLNNVSTGCILLGGLFIYDVFWVFGTNVMVTVAKSFEAPIKLVFPQDLLEKGLEANNFAMLGLGDVVIPGIFIALLLRFDISLKKNTHTYFYTSFAAYIFGLGLTIFIMHIFKHAQPALLYLVPACIGFPVLVALAKGEVTEMFSYEESNPKDPAAVTESKEGTEASASKGLEKKEK
B1: the binding entry is given as “binds”.
